No constants are given. Whether binding was seen depends on the method and setting. Some entries that bind do so weakly or less than the wild type. For some of these results: Tags and fused reporters may be left off the sequences shown.

For one assay, the target named is tag-free YqjD (E. coli) (UniProt P64581). Kind of assay: SDS-resistant dimer on SDS-PAGE.
For assay [1], the target named is ElaB (N-terminal Xpress-His6-tag) (E. coli) (UniProt P0AEH5). Kind of assay: SDS-resistant dimer on SDS-PAGE.
For another assay, the target named is ΔTM-YqjD (E. coli) (UniProt P64581). In words: SDS-resistant dimer on SDS-PAGE with western blot.
Assay [2] deals with YgaM (N-terminal Xpress-His6-tag) (E. coli) (UniProt P0ADQ7). In words: SDS-resistant dimer on SDS-PAGE.

B1: YqjD (wild type, full-length, N-terminal Xpress-His6-tag) (natural protein, E. coli, UniProt P64581 1-101, looked up)
chain: MSKEHTTEHLRAELKSLSDTLEEVLSSSGEKSKEELSKIRSKAEQALKQSRYRLGETGDAIAKQTRVAAARADEYVRENPWTGVGIGAAIGVVLGVLLSRR
For the molecule B1, the binding result with tag-free YqjD (E. coli) was “binds”.

B2: ElaB (N-terminal Xpress-His6-tag) (protein, UniProt P0AEH5 1-101)
chain: MSNQFGDTRIDDDLTLLSETLEEVLRSSGDPADQKYVELKARAEKALDDVKKRVSQASDSYYYRAKQAVYRADDYVHEKPWQGIGVGAAVGLVLGLLLARR
With B2, the binding entry in assay [1] is on record as “binds”.

B3: ΔTM-YqjD (domain or fragment, UniProt P64581 1-83)
chain: MSKEHTTEHLRAELKSLSDTLEEVLSSSGEKSKEELSKIRSKAEQALKQSRYRLGETGDAIAKQTRVAAARADEYVRENPWTG
Take B3: the binding entry with ΔTM-YqjD (E. coli) was “no binding”.

B4: YgaM (N-terminal Xpress-His6-tag) (protein, UniProt P0ADQ7 1-109)
chain: MFNRPNRNDVDDGVQDIQNDVNQLADSLESVLKSWGSDAKGEAEAARSKAQALLKETRARMHGRTRVQQAARDAVGCADSFVRERPWCSVGTAAAVGIFIGALLSMRKS
Consider B4, for which the binding result in assay [2] is “binds”.

The values above are taken from doi:10.1101/2024.08.16.608256 (bioRxiv, 2024).
